## Primary screen of a compound library

Protein sequences, listed by entry. Tags and fused reporters are not part of them.
UniProt P9WPC5, whole entry: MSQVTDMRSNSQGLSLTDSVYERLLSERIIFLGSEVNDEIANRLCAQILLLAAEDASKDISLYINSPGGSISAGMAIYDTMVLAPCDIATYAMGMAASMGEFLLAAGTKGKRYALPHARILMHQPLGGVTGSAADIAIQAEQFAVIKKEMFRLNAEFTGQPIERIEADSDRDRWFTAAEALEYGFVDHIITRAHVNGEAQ
UniProt P9WPC3, whole entry partner: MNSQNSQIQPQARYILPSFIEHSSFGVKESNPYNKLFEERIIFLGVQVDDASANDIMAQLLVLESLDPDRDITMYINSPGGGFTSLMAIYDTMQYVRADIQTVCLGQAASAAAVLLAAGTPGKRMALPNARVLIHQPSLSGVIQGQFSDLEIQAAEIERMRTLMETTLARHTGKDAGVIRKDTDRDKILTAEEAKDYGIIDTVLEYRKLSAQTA

From ChEMBL document CHEMBL3988442, “University of Dundee, Small-Polar-MMV Screening Library” (2021).

Each number is a percent effect as filed. The record does not define 0% and 100%; most values in the screen are far below 50% and negative numbers occur (in some assays of this library far below -100). Compounds were drawn at random from those tested, without regard to their results.

Toxoplasma: 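Assay of Toxoplasma gondii numbers, read through their beta-galactosidase reporter with a colour substrate. Compounds at 10 µM. The record gives no direction; the compounds picked for IC50 retests had high values, so higher reads as fewer parasites. About 67,000 compounds were tested under these conditions; 0.38% (about 260) showed 50% or more at least once.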
ClpP1P2: 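Protease assay of ClpP1P2, read by the AMC dye that it sets free. Target: ClpP1P2, Mycobacterium tuberculosis (UniProt P9WPC5 and UniProt P9WPC3). Concentration: 50 µM. Direction is inferred from only a few compounds that gave an IC50; most scored high, so higher reads as stronger inhibition. Most other retested compounds had strongly negative values. Size under these conditions: about 69,000 compounds, about 10 of them at 50% or above in at least one test.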

Compound: COCc1ccccc1C(=O)N1CCCC(c2cc(C)[nH]n2)C1 (centres undefined)
Toxoplasma: -0.6285
ClpP1P2: -1.811

Compound: CNc1nc(C(=O)NCC2CCOc3ccccc3C2)cs1 (centres undefined)
Toxoplasma: 11.96
ClpP1P2: -4.597

Compound: CCc1ncc2c(n1)CN(c1cc(NC3CC3)nc(N)n1)C2
Toxoplasma: -34.26
ClpP1P2: -14

Compound: O=C(C[S+]([O-])Cc1cccc(F)c1)NC1CCCC1 (centres undefined)
Toxoplasma: -3.123
ClpP1P2: -19.71

Compound: CCn1ncc2c1C(COC)CN(Cc1cccnc1)C2.O=C(O)C(F)(F)F.O=C(O)C(F)(F)F.O=C(O)C(F)(F)F (centres undefined)
Toxoplasma: 0.8169

Compound: Cc1nnc(N2CCC(NS(C)(=O)=O)CC2)c(C#N)c1C
Toxoplasma: 5.675
ClpP1P2: -2.319

Compound: O=C(c1csc(-c2nnc[nH]2)n1)N1CCCCC1Cn1cccn1 (centres undefined)
Toxoplasma: -24.79
ClpP1P2: -22.65

Compound: Cc1noc(CN(C)CC2CCN(CCO)CC2)n1
Toxoplasma: 1.643
ClpP1P2: -2.007

Compound: COCC(=O)N1CCO[C@H]2[C@H](OC)CC[C@@H]21
ClpP1P2: 5.563

Compound: Cc1nc(C2CCCN2C(=O)c2csc3c2CCCC3)no1 (centres undefined)
Toxoplasma: 3.223
ClpP1P2: -8.221

Compound: COCCN1CC(=O)c2sc(NCc3ccccc3)nc2C1
Toxoplasma: -0.3629
ClpP1P2: -2.758

Compound: Cc1cc(C)n(CC2CCCN2C(=O)CCc2ccncc2)n1 (centres undefined)
Toxoplasma: 1.793
ClpP1P2: -13.02

Compound: O=C(CCN1CCOC(C(F)(F)F)C1)NCc1ccc(Cl)cc1 (centres undefined)
Toxoplasma: 10.26
ClpP1P2: -14.25

Compound: Cc1cccc(CO[C@@H]2CC[C@H]3[C@H]2OCCN3Cc2ccoc2)n1
ClpP1P2: -1.87

Compound: Cc1cc(C)cc(C(C)NCc2nnc(C)s2)c1 (centres undefined)
Toxoplasma: 8.105
ClpP1P2: -13.18

Compound: CNC(=O)CN(C)c1cncc(OCc2ccccc2)n1
Toxoplasma: 5.418
ClpP1P2: -1.86

Compound: C1CC(CO[C@@H]2CC[C@H]3[C@H]2OCCN3CC2CC2)CCO1
ClpP1P2: -1.194

Compound: CN(C)CCCC(=O)N1C[C@H]2CC[C@@H]1CN(Cc1ccccc1)C2
ClpP1P2: -3.746

Compound: Cc1nn(C)c(Cl)c1C1CCCN1Cc1nc(C2CC2)no1 (centres undefined)
Toxoplasma: 1.12
ClpP1P2: -14.82

Compound: CC(=O)c1nn(-c2ccccc2)c(C)c1C(C)=O
Toxoplasma: 8.986
ClpP1P2: 0.5554

Compound: Cc1csc(CNC(=O)NCCc2ccc3c(c2)OCCO3)n1
Toxoplasma: -0.1772
ClpP1P2: 11.24

Compound: O=C(Cn1cccn1)N(CCO)CCSc1ccc(Cl)cc1
Toxoplasma: 4.894
ClpP1P2: -12.17

Compound: O=C(c1ccc(Cl)cc1)N1CCC(N2CCNC2=O)CC1
Toxoplasma: 18
ClpP1P2: 5.385

Compound: CCc1nc(CN(C(C)=O)C2CCN(Cc3cnc(C)cn3)C2)no1 (centres undefined)
ClpP1P2: 13.8

Compound: O=C(C1=CCCC1)N1CCC[C@]2(C[C@@H](OCc3ccccn3)CO2)C1.O=C(O)C(F)(F)F
Toxoplasma: -2.833

Compound: COc1ccc2c(c1)CN(c1cc(N3CCCC3CO)ncn1)CC2 (centres undefined)
Toxoplasma: 1.969
ClpP1P2: -6.089

Compound: COc1ccc(OC)c(C(O)CNC(=O)Nc2cc(C)nn2C)c1 (centres undefined)
Toxoplasma: -21.36
ClpP1P2: -27.88

Compound: O=C(NCc1cnc2n1CCN(CC1CCOCC1)C2)c1ccno1.O=C(O)C(F)(F)F
Toxoplasma: 25.88

Compound: c1cnc(NCc2cncc3c2CCN(Cc2cccs2)C3)nc1
ClpP1P2: -0.3478

Compound: COCC1CN(Cc2ccncc2)Cc2nn(CC3CC3)cc21 (centres undefined)
ClpP1P2: -6.61

Compound: Cc1cccc(-c2nnn3c2COC(CNCc2nccs2)C3)c1 (centres undefined)
ClpP1P2: 10.23

Compound: OC(COCc1ccc2c(c1)OCO2)CN1CC(n2cccn2)C1 (centres undefined)
Toxoplasma: 4.905
ClpP1P2: -5.342

Compound: Cn1ccc(C2CCCCN2C(=O)c2cccc(Cn3cccn3)c2)n1 (centres undefined)
Toxoplasma: -6.748
ClpP1P2: 3.619

Compound: [H][C@@]12CS(=O)(=O)C[C@]1([H])N(C(=O)Nc1ccccc1C)CCN2C(=O)C1CC1
Toxoplasma: 5.818

Compound: CCS(=O)(=O)N1CCN(C(=O)NC(C)C)CC2(CC(=O)N(C)C2)C1 (centres undefined)
Toxoplasma: 12.51
ClpP1P2: -0.01145

Compound: O=c1[nH]cc(N2CCCCC2)c(=O)[nH]1
Toxoplasma: -11.93
ClpP1P2: -2.901

Compound: O=C(NC1CC1)c1ccnc(N2CCOC(c3ccc(Cl)c(Cl)c3)C2)c1 (centres undefined)
Toxoplasma: -0.8274
ClpP1P2: -1.189

Compound: Cc1cc(C)n(CC2CCCN2C(=O)Cc2csc(C)n2)n1 (centres undefined)
Toxoplasma: 1.567
ClpP1P2: 2.802

Compound: Cc1cccc2cc(CNCCCN3CCOCC3)c(=O)[nH]c12
Toxoplasma: 27.23
ClpP1P2: -3.414

Compound: COc1ccc2c(c1)CN(Cc1nc3c(cnn3C)c(=O)[nH]1)CC2
ClpP1P2: -5.008

Compound: CCn1ccnc1CN(C)C1CCCN(CCCc2ccccc2)C1 (centres undefined)
Toxoplasma: -12.49
ClpP1P2: -6.854

Compound: Cc1csc(C2CCCCN2C(=O)CCCn2cncn2)n1 (centres undefined)
Toxoplasma: 1.406
ClpP1P2: 1.05

Compound: CC(C)CN1CC2(CCN(C(=O)C(O)c3ccccc3Cl)CC2)CC1=O (centres undefined)
Toxoplasma: -3.558
ClpP1P2: -6.544

Compound: COc1cc2c(cc1CN1CCc3sccc3C1C)OCO2 (centres undefined)
Toxoplasma: 21.62
ClpP1P2: -0.5349

Compound: COc1cc2cc(C)c(SCCN3CCCC3)nc2cc1OC
ClpP1P2: -8.416

Compound: CCc1ccccc1NC(=O)N1CCn2cnc(COC)c2C1
Toxoplasma: 1.435
ClpP1P2: -2.777